No constants are given. Whether binding was seen depends on the method and setting. Binding seen in cells or lysates may run through a third protein. Some entries that bind do so weakly or less than the wild type. Sequences can lack the tags named with a protein.
T1: C-terminally HA-tagged T9A (mouse) (UniProt Q9CR23)
T1 sequence: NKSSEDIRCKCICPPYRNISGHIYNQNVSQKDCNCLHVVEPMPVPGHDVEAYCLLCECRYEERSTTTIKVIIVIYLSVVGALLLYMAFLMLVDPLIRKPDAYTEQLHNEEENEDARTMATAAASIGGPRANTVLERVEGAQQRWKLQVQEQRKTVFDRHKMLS

Protein sequences, listed by entry. Tags and fused reporters are not part of them.
UniProt P51793: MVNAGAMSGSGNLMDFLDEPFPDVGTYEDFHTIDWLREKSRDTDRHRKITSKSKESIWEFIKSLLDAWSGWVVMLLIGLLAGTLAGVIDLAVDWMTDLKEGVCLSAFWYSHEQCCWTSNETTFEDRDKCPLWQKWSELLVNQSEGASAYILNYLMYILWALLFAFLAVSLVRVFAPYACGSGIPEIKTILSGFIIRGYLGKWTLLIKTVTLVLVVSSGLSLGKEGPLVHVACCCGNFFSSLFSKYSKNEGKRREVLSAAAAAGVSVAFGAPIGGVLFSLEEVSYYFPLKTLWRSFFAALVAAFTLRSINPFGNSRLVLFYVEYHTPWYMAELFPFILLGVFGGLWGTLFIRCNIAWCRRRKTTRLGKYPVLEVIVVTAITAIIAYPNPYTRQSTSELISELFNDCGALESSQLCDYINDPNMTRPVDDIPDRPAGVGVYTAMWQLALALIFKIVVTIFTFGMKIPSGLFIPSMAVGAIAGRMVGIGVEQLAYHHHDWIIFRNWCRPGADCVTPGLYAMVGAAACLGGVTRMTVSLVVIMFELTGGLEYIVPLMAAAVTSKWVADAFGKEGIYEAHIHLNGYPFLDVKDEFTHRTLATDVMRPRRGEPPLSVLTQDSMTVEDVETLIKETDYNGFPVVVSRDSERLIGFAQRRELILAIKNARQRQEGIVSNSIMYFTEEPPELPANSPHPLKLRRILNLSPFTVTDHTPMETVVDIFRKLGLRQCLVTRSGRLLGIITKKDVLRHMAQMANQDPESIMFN


Target: T1, C-terminally HA-tagged T9A (mouse)
Test: co-IP; HeLa cells co-transfected with T9A-HA and Venus-CLCs, lysed in HBS with 1% DDM; anti-HA magnetic beads overnight; blots for GFP and HA

| Molecule | binding |
| --- | --- |
| Venus-ClC-4 (from UniProt P51793 1-760) | binds |
| Venus-ClC-5 (protein, UniProt P51795 1-816) MAMWQGAMDNRGFQQGSFSSFQNSSSDEDLMDIPATAMDFSMRDDVPPLDREVGEDKSYNGGGIGSSNRIMDFLEEPIPGVGTYDDFNTIDWVREKSRDRDRHREITNKSKESTWALIHSVSDAFSGWLLMLLIGLLSGSLAGLIDISAHWMTDLKEGICTGGFWFNHEHCCWNSEHVTFEERDKCPEWNSWSQLIISTDEGAFAYIVNYFMYVLWALLFAFLAVSLVKVFAPYACGSGIPEIKTILSGFIIRGYLGKWTLVIKTITLVLAVSSGLSLGKEGPLVHVACCCGNILCHCFNKYRKNEAKRREVLSAAAAAGVSVAFGAPIGGVLFSLEEVSYYFPLKTLWRSFFAALVAAFTLRSINPFGNSRLVLFYVEFHTPWHLFELVPFILLGIFGGLWGALFIRTNIAWCRKRKTTQLGKYPVIEVLVVTAITAILAFPNEYTRMSTSELISELFNDCGLLDSSKLCDYENRFNTSKGGELPDRPAGVGVYSAMWQLALTLILKIVITIFTFGMKIPSGLFIPSMAVGAIAGRLLGVGMEQLAYYHQEWTVFNSWCSQGADCITPGLYAMVGAAACLGGVTRMTVSLVVIMFELTGGLEYIVPLMAAAMTSKWVADALGREGIYDAHIRLNGYPFLEAKEEFAHKTLAMDVMKPRRNDPLLTVLTQDSMTVEDVETIISETTYSGFPVVVSRESQRLVGFVLRRDLIISIENARKKQDGVVSTSIIYFTEHSPPLPPYTPPTLKLRNILDLSPFTVTDLTPMEIVVDIFRKLGLRQCLVTHNGRLLGIITKKDVLKHIAQMANQDPDSILFN | binds |
| Venus-ClC-7 (protein, UniProt P51798 1-805) MANVSKKVSWSGRDRDDEEAAPLLRRTARPGGGTPLLNGAGPGAARQSPRSALFRVGHMSSVELDDELLDPDMDPPHPFPKEIPHNEKLLSLKYESLDYDNSENQLFLEEERRINHTAFRTVEIKRWVICALIGILTGLVACFIDIVVENLAGLKYRVIKGNIDKFTEKGGLSFSLLLWATLNAAFVLVGSVIVAFIEPVAAGSGIPQIKCFLNGVKIPHVVRLKTLVIKVSGVILSVVGGLAVGKEGPMIHSGSVIAAGISQGRSTSLKRDFKIFEYFRRDTEKRDFVSAGAAAGVSAAFGAPVGGVLFSLEEGASFWNQFLTWRIFFASMISTFTLNFVLSIYHGNMWDLSSPGLINFGRFDSEKMAYTIHEIPVFIAMGVVGGVLGAVFNALNYWLTMFRIRYIHRPCLQVIEAVLVAAVTATVAFVLIYSSRDCQPLQGGSMSYPLQLFCADGEYNSMAAAFFNTPEKSVVSLFHDPPGSYNPLTLGLFTLVYFFLACWTYGLTVSAGVFIPSLLIGAAWGRLFGISLSYLTGAAIWADPGKYALMGAAAQLGGIVRMTLSLTVIMMEATSNVTYGFPIMLVLMTAKIVGDVFIEGLYDMHIQLQSVPFLHWEAPVTSHSLTAREVMSTPVTCLRRREKVGVIVDVLSDTASNHNGFPVVEHADDTQPARLQGLILRSQLIVLLKHKVFVERSNLGLVQRRLRLKDFRDAYPRFPPIQSIHVSQDERECTMDLSEFMNPSPYTVPQEASLPRVFKLFRALGLRHLVVVDNRNQVVGLVTRKDLARYRLGKRGLEELSLAQT | no binding |
